Some of these results come from one statement about several compounds together.
Assay: Photostability under light irradiation (500 nm, methanol)
Assay type: physicochemical
Conditions: methanol solution, light of 500 nm, 37° C., FIG. 2
Experimental: Next, a methanol solution containing each of compounds 2 to 4 was irradiated with light of 500 nm, and incubated at 37° C. Then, a change in the time course of the absorbance at the maximum light absorption wavelength was measured to compare their photostability (FIG. 2). […] By contrast, compounds 3 and 4, having a perfluoroalkyl group, took 2 hours or longer until complete photofading. […] Reaction with singlet oxygen seems to be primarily responsible for the photofading under visible light irradiation. So, the photostability of the present compounds was considered from the viewpoint of the reactivity with singlet oxygen. First, the HOMO/LUMO levels of compounds 2 to 4 were calculated in accordance with a DFT algorithm (FIG. 3). […] As the HOMO level increases, the compounds are more susceptible to oxygenation by singlet oxygen. Thus, this calculation results agree with the results of the photostability test. […] This reflects the fact that the maximum absorption wavelength is unchanged.

Structure (SMILES) | time until complete photofading [h]
CC1=CC(C)=[N+]2C1=Cc1c(C)cc(C)n1[B-]2(F)C(F)(F)F (centres unmarked) [Compound 3] | ≥ 2
CC1=CC(C)=[N+]2C1=Cc1c(C)cc(C)n1[B-]2(F)C(F)(F)C(F)(F)F (centres unmarked) [Compound 4] | ≥ 2

Source: patent publication US10188671B2, “Boron-dipyrrin complex and medicament containing the same” (JAPAN SCIENCE AND TECHNOLOGY AGENCY, priority 2015, dated 2019)
